# Measurements taken from PMC12314914.
# Tested on: VanR2 (GntR-type transcriptional repressor) (Pseudomonas sp. NGC7)
# Test: EMSA
# Conditions: 20 mM HEPES pH 7.6, 1 mM EDTA, 10 mM (NH4)2SO4, 1 mM DTT, 0.2% Tween 20, 30 mM KCl, 1 mM MgCl2, 0.1 ug/uL poly(dI-C), 0.01 ug/uL poly-L-lysine; 1.5 uM VanR2, 8 nM DNA; recombinant protein; protein details: C-terminal His tag (pET-21a); letters put together from the description
row,Sequence,binding result
1,CAGCGGGTGCCTTTGTTCGGTGATAGCCAGGACTTTTAGCCCCGTTTAGGAAGATTCTGCCCTACAAAGTCCCAAATGCCAAAAAAGCATGATTACCCGATTGACTTCGGATAGGGCCAACCATAACATAAAGTCCCAATAGCGGCAAAAACCTGAAATTTACGCTACGGATACCCTGACTGAAAGTCCCAACAAGAACAAAATACTCAGGAGCTGTCCCG (double strand) [B2-1_VAllm probe],no binding
2,CAGCGGGTGCCTTTGTTCGGTGATAGCCAGGACTTTTAGCCCCGTTTAGGAAGATTCTGCCCTACAAAGTCCCAAATGCCAAAAAAGCATGATTACCCGATTGACTTCGGATAGGGCCAACCATAACATGGGATCCCAATAGCGGCAAAAACCTGAAATTTACGCTACGGATACCCTGACTGGGGATCCCAACAAGAACAAAATACTCAGGAGCTGTCCCG (double strand) [B2-1_V1m probe],binds
3,CAGCGGGTGCCTTTGTTCGGTGATAGCCAGGACTTTTAGCCCCGTTTAGGAAGATTCTGCCCTACGGGATCCCAAATGCCAAAAAAGCATGATTACCCGATTGACTTCGGATAGGGC (double strand) [IR-V1 probe],binds
4,CAGCGGGTGCCTTTGTTCGGTGATAGCCAGGACTTTTAGCCCCGTTTAGGAAGATTCTGCCCTACGGGATCCCAAATGCCAAAAAAGCATGATTACCCGATTGACTTCGGATAGGGCCAACCATAACATAAAGTCCCAATAGCGGCAAAAACCTGAAATTTACGCTACGGATACCCTGACTGGGGATCCCAACAAGAACAAAATACTCAGGAGCTGTCCCG (double strand) [B2-1_V2m probe],binds
5,CAGCGGGTGCCTTTGTTCGGTGATAGCCAGGACTTTTAGCCCCGTTTAGGAAGATTCTGCCCTACGGGATCCCAAATGCCAAAAAAGCATGATTACCCGATTGACTTCGGATAGGGCCAACCATAACATGGGATCCCAATAGCGGCAAAAACCTGAAATTTACGCTACGGATACCCTGACTGAAAGTCCCAACAAGAACAAAATACTCAGGAGCTGTCCCG (double strand) [B2-1_V3m probe],binds
6,CGATTGACTTCGGATAGGGCCAACCATAACATGGGATCCCAATAGCGGCAAAAACCTGAAATTTACGCTACGGATACCCTGA (double strand) [IR-V2 probe],binds

# For at least one entry, the source does not settle the construct or the ends of the probe. A negative result means that nothing was seen under these conditions. At least one verdict was read from the data and is not stated in words by the source.
